Results deposited as PubChem BioAssay AID1259405 (NCATS, 2018).
Purpose: 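Mouse-designed siRNAs used to find CHO productivity engineering targets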 (primary screen). Cell system: Chinese hamster CHO-K1 ovary cells with stable secreted eGFP expression. Reagents: single siRNA against mouse genes, 0.8 pmol siRNA per well (2 µl of 400 nM stock). Timing: 3 days. Detection: 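Per-well intracellular GFP measured by laser scanning cytometry, plus viability from ATP luminescence, each relative to plate median of non-targeting control wells, in %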. Direction: GFP, % of control: higher = more GFP per well, higher productivity; viability (ATP), % of control: higher = more viable cells (more ATP). Hit rule: 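Called active when intracellular GFP, relative to negative control, is at or above 120%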.
Shown is a random part of about 50,000 reagents tested. Of all reagents, about 4,000 (8%) are marked active. 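Mouse siRNA library applied to hamster cells; one well for each siRNA.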 A number with no mark means an inactive call. The numbers tell different reagents against one gene apart.

| gene | siRNA no. | GFP, % of control | viability (ATP), % of control |
| --- | --- | --- | --- |
| Psmb6 (GeneID 19175) | 1 | 62.9 | 60.1 |
| Psmb6 (GeneID 19175) | 2 | 36.4 | 28.6 |
| Psmb6 (GeneID 19175) | 3 | 82.5 | 76 |
| Hook1 (GeneID 77963) | 1 | 50.2 | 37.9 |
| Hook1 (GeneID 77963) | 2 | 73.3 | 49.9 |
| Hook1 (GeneID 77963) | 3 | 30.5 | 42.9 |
| Acap2 (GeneID 78618) | 1 | 84.5 | 80.5 |
| Acap2 (GeneID 78618) | 2 | 96.8 | 86.1 |
| Acap2 (GeneID 78618) | 3 | 90.1 | 101 |
| 2310002L09Rik (GeneID 71886) | 1 | 83 | 103 |
| 2310002L09Rik (GeneID 71886) | 2 | 30.6 | 33.5 |
| 2310002L09Rik (GeneID 71886) | 3 | 69 | 66.7 |
| Ccne2 (GeneID 12448) | 1 | 134 (active) | 43.9 |
| Ccne2 (GeneID 12448) | 2 | 87.3 | 62.1 |
| Ccne2 (GeneID 12448) | 3 | 97.1 | 94.7 |
| Nkx3-1 (GeneID 18095) | 1 | 67 | 69 |
| Nkx3-1 (GeneID 18095) | 2 | 68.7 | 68 |
| Nkx3-1 (GeneID 18095) | 3 | 63 | 60.2 |
| Acadm (GeneID 11364) | 1 | 83.5 | 73.3 |
| Acadm (GeneID 11364) | 2 | 82 | 73.7 |
| Acadm (GeneID 11364) | 3 | 75.6 | 67 |
| Clmb (GeneID 68918) | 1 | 86.3 | 116 |
| Clmb (GeneID 68918) | 2 | 71.5 | 95.3 |
| Clmb (GeneID 68918) | 3 | 90.7 | 103 |
| Tspyl4 (GeneID 72480) | 1 | 47.7 | 46.9 |
| Tspyl4 (GeneID 72480) | 2 | 83.3 | 91.8 |
| Tspyl4 (GeneID 72480) | 3 | 93 | 45.4 |
| Or14c45 (GeneID 258611) | 1 | 33 | 31.2 |
| Or14c45 (GeneID 258611) | 2 | 66.9 | 55 |
| Or14c45 (GeneID 258611) | 3 | 65.6 | 111 |
| Aspm (GeneID 12316) | 1 | 85.2 | 87 |
| Aspm (GeneID 12316) | 2 | 63.1 | 85.1 |
| Aspm (GeneID 12316) | 3 | 65.2 | 48 |
| Acot8 (GeneID 170789) | 1 | 79.5 | 86.8 |
| Acot8 (GeneID 170789) | 2 | 62.1 | 61.8 |
| Acot8 (GeneID 170789) | 3 | 65.6 | 101 |
| Sqle (GeneID 20775) | 1 | 76.9 | 102 |
| Sqle (GeneID 20775) | 2 | 79.8 | 72.2 |
| Pomt1 (GeneID 99011) | 1 | 81.8 | 121 |
| Pomt1 (GeneID 99011) | 2 | 104 | 107 |
| Pomt1 (GeneID 99011) | 3 | 91.9 | 93.4 |
| Il21r (GeneID 60504) | 1 | 61.7 | 36.8 |
| Il21r (GeneID 60504) | 2 | 72.5 | 58.4 |
| Il21r (GeneID 60504) | 3 | 70.2 | 63.3 |
| Cdc123 (GeneID 98828) | 1 | 64.5 | 74.1 |
| Cdc123 (GeneID 98828) | 2 | 86.3 | 73.3 |
| Cdc123 (GeneID 98828) | 3 | 65.4 | 88.6 |
| Or8g21 (GeneID 258741) | 1 | 61.1 | 68.3 |
| Or8g21 (GeneID 258741) | 2 | 88.2 | 73.6 |
| Or8g21 (GeneID 258741) | 3 | 72.7 | 71.8 |
| Xab2 (GeneID 67439) | 1 | 98.3 | 108 |
| Xab2 (GeneID 67439) | 2 | 75.6 | 91 |
| Serpinb1a (GeneID 66222) | 1 | 81 | 93.1 |
| Serpinb1a (GeneID 66222) | 2 | 50.5 | 68.1 |
| Serpinb1a (GeneID 66222) | 3 | 68.4 | 63.6 |
| Park7 (GeneID 57320) | 1 | 92.5 | 72.8 |
| Park7 (GeneID 57320) | 2 | 62.8 | 65.8 |
| Ushbp1 (GeneID 234395) | 1 | 61 | 41.7 |
| Ushbp1 (GeneID 234395) | 2 | 48.6 | 48.9 |
| Ushbp1 (GeneID 234395) | 3 | 88 | 94.7 |
| 3110040N11Rik (GeneID 67290) | 1 | 86.3 | 72.8 |
| 3110040N11Rik (GeneID 67290) | 2 | 81.4 | 100 |
| 3110040N11Rik (GeneID 67290) | 3 | 86.1 | 59 |
| Trpv2 (GeneID 22368) | 1 | 71.9 | 73.6 |
| Trpv2 (GeneID 22368) | 2 | 50 | 53.6 |
| Trpv2 (GeneID 22368) | 3 | 83.7 | 85.5 |
| Tyms (GeneID 22171) | 1 | 61.5 | 44.2 |
| Tyms (GeneID 22171) | 2 | 50 | 44.8 |
| Tyms (GeneID 22171) | 3 | 91.2 | 108 |
| Or4c12b (GeneID 258979) | 1 | 61.5 | 52 |
| Or4c12b (GeneID 258979) | 2 | 62.9 | 42.5 |
| Or4c12b (GeneID 258979) | 3 | 59.3 | 95.8 |
| Or6c217 (GeneID 258665) | 1 | 70.4 | 76.8 |
| Or6c217 (GeneID 258665) | 2 | 67.3 | 44.2 |
| Or6c217 (GeneID 258665) | 3 | 81.4 | 77.5 |
| Cnnm2 (GeneID 94219) | 1 | 55.1 | 83.4 |
| Cnnm2 (GeneID 94219) | 2 | 91.9 | 92.2 |
| Cnnm2 (GeneID 94219) | 3 | 67.1 | 94.9 |
| Prmt7 (GeneID 214572) | 1 | 190 (active) | 83.7 |
| Prmt7 (GeneID 214572) | 2 | 109 | 146 |
| Prmt7 (GeneID 214572) | 3 | 60 | 81.5 |
| Zfp629 (GeneID 320683) | 1 | 44.8 | 69.6 |
| Zfp629 (GeneID 320683) | 2 | 63.6 | 59.5 |
| Zfp629 (GeneID 320683) | 3 | 75.1 | 103 |

Called active, among the entries above:
| gene | siRNA no. | GFP, % of control | viability (ATP), % of control |
| --- | --- | --- | --- |
| Ccne2 (GeneID 12448) | 1 | 134 (active) | 43.9 |
| Prmt7 (GeneID 214572) | 1 | 190 (active) | 83.7 |
